Assay results as given in patent publication US20100021473A1 (DOMANTIS, published 2010).
These are yes or no findings as the source states them, for the method shown. Some binding calls cover weakened binding; strength is not graded here.

Chains of the proteins cited; added tags and fusions are not shown. Lines headed by an entry give the natural chain unless they say otherwise; changes in a name come on top. Residues count along the entry.
UniProt P28907: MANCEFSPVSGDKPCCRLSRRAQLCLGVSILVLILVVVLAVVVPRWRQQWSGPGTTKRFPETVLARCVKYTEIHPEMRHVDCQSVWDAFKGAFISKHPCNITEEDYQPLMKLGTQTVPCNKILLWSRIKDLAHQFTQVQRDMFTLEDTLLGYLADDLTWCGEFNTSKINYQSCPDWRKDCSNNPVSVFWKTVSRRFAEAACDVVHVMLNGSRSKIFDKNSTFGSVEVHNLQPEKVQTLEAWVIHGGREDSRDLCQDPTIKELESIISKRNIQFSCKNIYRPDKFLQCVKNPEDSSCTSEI
UniProt P13591, residues 20-858: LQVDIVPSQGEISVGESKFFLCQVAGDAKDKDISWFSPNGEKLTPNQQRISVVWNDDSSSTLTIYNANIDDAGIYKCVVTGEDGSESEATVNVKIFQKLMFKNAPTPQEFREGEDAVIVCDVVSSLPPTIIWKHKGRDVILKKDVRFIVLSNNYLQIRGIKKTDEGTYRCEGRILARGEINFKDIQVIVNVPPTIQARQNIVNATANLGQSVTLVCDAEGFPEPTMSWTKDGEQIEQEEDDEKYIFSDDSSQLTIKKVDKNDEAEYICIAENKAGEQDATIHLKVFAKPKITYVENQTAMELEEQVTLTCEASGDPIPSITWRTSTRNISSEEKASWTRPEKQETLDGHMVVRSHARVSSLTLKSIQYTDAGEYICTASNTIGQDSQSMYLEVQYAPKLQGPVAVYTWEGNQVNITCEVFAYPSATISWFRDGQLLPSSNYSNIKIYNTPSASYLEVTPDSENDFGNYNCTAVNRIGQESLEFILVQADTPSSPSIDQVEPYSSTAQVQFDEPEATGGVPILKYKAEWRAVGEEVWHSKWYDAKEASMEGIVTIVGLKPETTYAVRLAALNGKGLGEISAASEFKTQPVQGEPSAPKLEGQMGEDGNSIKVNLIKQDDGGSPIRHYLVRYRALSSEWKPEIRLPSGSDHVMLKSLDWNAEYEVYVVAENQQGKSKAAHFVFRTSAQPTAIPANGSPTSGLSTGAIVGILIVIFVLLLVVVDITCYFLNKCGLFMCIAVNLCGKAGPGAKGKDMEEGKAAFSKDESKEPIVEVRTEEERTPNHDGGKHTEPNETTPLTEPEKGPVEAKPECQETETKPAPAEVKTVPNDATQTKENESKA

Columns and labels:
CD38 on cells [1] = molecular target: T1, CD38 on cells (UniProt P28907 1-300); test: FACS
T1 construct: whole, on cells; Endogenous CD38 on cell lines used in FACS or microscopy; also called DOM11; T10

CD38 on cells [2] = molecular target: T1, CD38 on cells; test: FACS on RPMI cells
CD38 on cells [3] = molecular target: T1, CD38 on cells; test: FACS on SUPB cells (CD38+/CD138-)
CD38 on cells [4] = molecular target: T1, CD38 on cells; test: FACS on RPMI cells (CD38+/138+)
Experimental: All dAbs were analysed by FACS on antigen positive and negative cell lines using the following method.
The determination of cell binding by FACS was carried out as follows: cells were centrifuged at 250 g for 5 minutes and the growth medium was removed. The cells were resuspended in FACS incubation buffer at 4° C. at a density of 2×10⁶ cells/ml. The cells were blocked by incubating for 15 minutes at 4° C. in FACS incubation buffer. Fifty microliters of 2× stock of primary antibody (anti-CD38 FITC, anti-CD138 FITC or mIgG1 FITC conjugated isotype control (all BD Biosciences) was added; or dAb was added to cells in FACS incubation buffer and incubated for 30-60 minutes at 4° C. The cells were then washed once in FACS incubation buffer. One hundred microliters of secondary antibody (rabbit anti-Vk) was added to cells in FACS incubation buffer and incubated 30-60 minutes at 4° C. The cells were washed once in FACS incubation buffer. Then 100 ul of 1× tertiary antibody was added to the cells in FACS incubation buffer and incubated for 30-60 mins at 4° C. (for dAbs the tertiary antibody is anti-rabbit FITC (Sigma)). The cells were washed twice in FACS incubation buffer. The cell pellet was resuspend in 200 ul FACS incubation buffer+viable cell marker (BD Viaprobe). The cells were then analyzed by flow cytometry.

[5] = molecular target: T2, CD38 immobilised on Biacore CM5 chip (UniProt P28907 43-300, limits assumed); test: SPR, co-injection on immobilised CD38, 500 nM
T2 construct: also called DOM11

CD38 on cells [6] = molecular target: T1, CD38 on cells; test: FACS on RPMI cells (CD38+/CD138+), dAb at 500 nM
[7] = molecular target: T2, CD38 immobilised on Biacore CM5 chip; test: SPR (Biacore) co-injection on immobilised CD38, dAbs at 500 nM
Experimental: Anti-CD38, anti-CEA and anti-CD56 dAbs that were identified as FACS positive clones were in addition analysed by Biacore using the following procedure. The CM5 chip surface was activated by flushing 1:1 EDC/NHS (0.4M1-ethyl-3-(3-dimenthylaminopropyl)-carbodiimide in water; 0.1 M N-hydroxysuccinimide in water) at a flow rate of 5 uL/min for 10 minute contact time. CD38 was immobilised at 500 nM in Acetate buffer pH4 at 5 uL/min this was repeated until the RUs reached between 500 and 1000 (low density). CEA and CD56 were coupled in acetate buffer pH 4.5. Any excess reactive groups were deactivated by running 1M ethanolamine-HCl over the CM5 chip (again 5 uL/min for 7 mins). The affinities of the anti-CD38, anti-CEA and anti-CD56 dAbs were measured on the biacore as described above.
Epitope mapping was performed to determine whether anti-CD38 dAbs bound to different epitopes on CD38. The assay was performed on BIAcore as described above using a chip coated at medium density (RUs of ˜2000). CD38 was coated on to a CM5 chip at medium density as described above. Using the co-inject function, the first anti-CD38 dAbs was injected at a concentration of 500 nM. Both the first and second anti-CD38 dabs were the co-injected at the same concentration (500 nM). As both dAbs bind different epitopes, the RUs during the second injection increase beyond the level of binding of the first dAb.

[8] = molecular target: T2, CD38 immobilised on Biacore CM5 chip; test: SPR (Biacore), CD38 immobilised on a CM5 chip; y axis % Response Difference, x axis Time (s)
CD56 on cells [9] = molecular target: CD56 on cells (UniProt P13591); test: FACS
CD56 on cells [10] = molecular target: CD56 on cells (UniProt P13591); test: FACS on H69 cells
CD56 on cells [11] = molecular target: CD56 on cells (UniProt P13591); test: FACS on H82 cells, dAb tested as dimer
CD56 on cells [12] = molecular target: CD56 on cells (UniProt P13591); test: FACS on H69 cells (CEA+/CD56+), dAb at 500 nM
CD56 on cells [13] = molecular target: CD56 on cells (UniProt P13591); test: FACS on H82 cells
CD56 on cells [14] = molecular target: CD56 on cells (UniProt P13591); test: FACS on H69 cells; H69 cells
[15] = molecular target: T3, CD38 and CD138 co-expressed on cells (CD38+/CD138+ double positive cells) (UniProt P28907 1-300; P18827 23-310); test: FACS on OPM2 cells
T3 construct: whole, on cells; Two separate membrane proteins on the same cell, not a complex; also called RPMI8226; OPM2

[16] = molecular target: T3, CD38 and CD138 co-expressed on cells …; test: FACS on RPMI8226 cells, 50 nM
[17] = molecular target: T3, CD38 and CD138 co-expressed on cells …; test: FACS on double positive cell lines, 25-50 nM
[18] = molecular target: T3, CD38 and CD138 co-expressed on cells …; test: FACS on OPM2 cells (CD38+/CD138+), surface-bound (4°C) and acid-resistant signal
[19] = molecular target: T3, CD38 and CD138 co-expressed on cells …; test: FACS on OPM2 cells (CD38+/CD138+), surface-bound (4°C) and acid-resistant (a/w) signal
[20] = molecular target: T3, CD38 and CD138 co-expressed on cells …; test: FACS cell binding titration on OPM2 cells (CD38+/CD138+), arithmetic mean fluorescence against log conc in nm
[21] = molecular target: T3, CD38 and CD138 co-expressed on cells …; test: FACS, surface-bound (4°C) and acid-resistant (a/w) signal; cells OPM2 (CD38+/CD138+) by the legend paragraph 60 and paragraph 342, but the key of Fig 6B on the same sheet names Raji cells (CD38+)
[22] = molecular target: T3, CD38 and CD138 co-expressed on cells …; test: FACS of pegylated samples (5K, 20K, 30K, 40K PEG)
[23] = molecular target: T3, CD38 and CD138 co-expressed on cells …; test: FACS on OPM2 cells (CD38+/CD138+), ligand with 5K PEG, surface-bound (4°C) and acid-resistant (a/w) signal
[24] = molecular target: T3, CD38 and CD138 co-expressed on cells …; test: FACS on OPM2 cells (CD38+/CD138+), ligand with 20K PEG, surface-bound (4°C) and acid-resistant (a/w) signal
[25] = molecular target: T3, CD38 and CD138 co-expressed on cells …; test: FACS on OPM2 cells (CD38+/CD138+), ligand with 30K PEG, surface-bound (4°C) and acid-resistant (a/w) signal
[26] = molecular target: T3, CD38 and CD138 co-expressed on cells …; test: FACS on OPM2 cells (CD38+/CD138+), ligand with 40K PEG, surface-bound (4°C) and acid-resistant (a/w) signal

Measured: binding

B1: DOM11-3 (other)
chain: DIQMTQSPSSLSASVGDRVTITCRASQNIDSRLSWYQQKPGKAPKLLIYRTSVLQSGVPSRFSGSGSGTDFTLTISSLQPEDFATYYCQQWDMFPLTFGQGTKVEVK
notes: Anti-CD38 domain antibody (dAb) monomer; also called DOM11-3A
binds: CD38 on cells [1] | CD38 on cells [2] | CD38 on cells [3] | CD38 on cells [4] | [5] | CD38 on cells [6] | [7] | [8]

B2: DOM14-23 (other)
chain: DIQMTQSPSSLSASVGDRVTITCRASQDIFPFLNWYQQKPGKAPELLIYRASILHSGVPSRFSGSGSGTDFTLTISSLQPEDFATYYCQQIARSPRTFGQGTKVEIKR
notes: Anti-CD56 dAb
binds: CD56 on cells [9] | CD56 on cells [10] | CD56 on cells [11] | CD56 on cells [12]

B3: DOM14-70 (other)
chain: DIQMTQSPSSLSASVGDRVTITCRASQEIGQWLNWYQQKPGKAPKLLIYWGSELQSGVPSRFSGSGSGTDFTLTISSLQPEDFATYYCQQVSRNPFTFGQGTKVEIKR
notes: Anti-CD56 dAb monomer
binds: CD56 on cells [13] | CD56 on cells [10]

B4: DOM11-30 (other)
chain: DIQITQSPSSLSASVGDRITITCRASQKIENDLAWYQQKPGKAPKLLIYYTSILQSGVPSRFSGSGSGTDFTLTISSLQPEDFATYYCQQRRYVPATFGQGTKVEIKR
notes: Anti-CD38 dAb monomer
binds: CD38 on cells [1] | CD38 on cells [2] | CD38 on cells [4] | [5] | CD38 on cells [6] | [7] | [8]

B5: DOM14-48 (protein)
chain: DIQMTQSPSSLSASVGDRVTITCRASRLIGKHLSWYQQKPGKAPKLLIYRSSVLQSGVPSRFSGSGSGTDFTLTISSLQPEDFATYYCQQHATSPRTFGQGTKVEIKR
binds: CD56 on cells [14]

B6: DOM11-3/DOM12-45 anti-CD38/anti-CD138 dual specific ligand (bispecific antibody)
chain: DIQMTQSPSSLSASVGDRVTITCRASQNIDSRLSWYQQKPGKAPKLLIYRTSVLQSGVPSRFSGSGSGTDFTLTISSLQPEDFATYYCQQWDMFPLTFGQGTKVEIKRSSGGGGSGGGGSGGGGSGGGGSGGGGSTDIQMTQSPSSLSASVGDRVTITCRASQDIGDRLRWYQQKPGKAPKLLIYHGSRLESGVPSRFSGSRSGTDFTLTISSLQPEDFATYYCQQQWFRPYTFGQGTKVEIKR
notes: In-line fusion of two dAbs, expressed in E. coli; also called DOM11-3/12-45
binds: [15] | [16] | [17] | [18] | [19] | [20] | [21]

B7: PEGylated DOM11-3/DOM12-45 (5K, 20K, 30K or 40K PEG) (bispecific antibody)
chain: B6 chain
modifications: engineered C-terminal cysteine coupled to 5K, 20K, 30K or 40K linear MAL-PEG
binds: [22] | [23] | [24] | [25] | [26]

B8: DOM14-63 (other)
chain: DIQMTQSPSSLSASVGDRVTITCRASQNISRGLRWYQQKPGKAPKLLIYHASKLQSGVPSRFSGSGSGTDFTLTISSLQPEDFATYYCQQYKVFPGTFGQGTKVEIKR
notes: Anti-CD56 dAb monomer
binds: CD56 on cells [14]

B9: DOM14-68 (other)
chain: DIQMTQSPSSLSASVGDRVTITCRASQEISGELTWYQQKPGKAPKLLIYFSSILQSGVPSRFSGSGSGTDFTLTISSLQPEDFATYYCQQRKLRPYTFGQGTKVEIKR
notes: Anti-CD56 dAb monomer
binds: CD56 on cells [13] | CD56 on cells [10]
